# Reference: PubChem BioAssay AID1224830 (NIAID, 2016)
# Screen: 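Host factors that control LPS-induced TNF expression in human macrophages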 (primary screen)
# System: human THP-1 monocytic leukaemia cells, TNF dual-luciferase reporter clone, PMA-differentiated to macrophage-like cells
# Reagents: siRNA pool against human genes, 50 nM
# Timing: LPS for 4 h, given about 3 days after siRNA transfection
# Challenge: bacterial LPS (TLR4 ligand), 10 ng/ml
# Read-out: 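Ratio of firefly to renilla light, scaled to the plate median and expressed as a robust z-score per replicate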
# Direction: TNF reporter robust z-score: higher = stronger TNF reporter response to LPS
# Call rule: 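a well is active when its z-score exceeds 2.8 or falls below -1.5; control wells carry no call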
# The deposit covers about 18,000 reagents; this is a random part of them. Of all reagents, about 2,900 (16%) got an active call. 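Calls are made per well; low scores hint the gene aids the LPS response, high scores that it dampens it.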 Unmarked entries are inactive. Repeated entries: four replicate wells of each siRNA pool. Reagent sequences are not shown.
gene symbol,TNF reporter robust z-score
ZFP64,-1.44
ZFP64,-1.18
ZFP64,-1.1
ZFP64,-1.16
HS3ST3A1,0.15
HS3ST3A1,1.04
HS3ST3A1,0.47
HS3ST3A1,0.54
POR,-1.43
POR,-1.54 (active)
POR,-1.38
POR,-1.22
TNFSF9,2.83 (active)
TNFSF9,2.45
TNFSF9,2.92 (active)
TNFSF9,2.73
LYZL2,-0.71
LYZL2,-0.78
LYZL2,-0.6
LYZL2,-0.32
FGF21,0.14
FGF21,1.45
FGF21,-0.12
FGF21,0.59
GABRE,0.22
GABRE,-0.76
GABRE,-1.5
GABRE,-0.92
TMEM94,-1.51 (active)
TMEM94,-0.66
TMEM94,-1.22
TMEM94,-0.57
XCL2,-0.9
XCL2,-1.01
XCL2,-0.87
XCL2,-0.5
MIER3,-1.33
MIER3,-1.3
MIER3,-0.57
MIER3,-0.78
EEF2KMT,-1.06
EEF2KMT,-0.73
EEF2KMT,-0.7
EEF2KMT,-0.52
NDUFS3,0.55
NDUFS3,0.78
NDUFS3,0.75
NDUFS3,0.91
UCP1,0.09
UCP1,0.61
UCP1,-0.16
UCP1,0.51
FBXO16,-0.57
FBXO16,-1.58 (active)
FBXO16,3.69 (active)
FBXO16,0.92
PAMR1,-0.83
PAMR1,-0.35
PAMR1,-0.29
PAMR1,-0.74
OR6C68,-0.38
OR6C68,-0.92
OR6C68,-1.15
OR6C68,0.13
H2BC21,-0.57
H2BC21,-1.04
H2BC21,-0.28
RNF141,1.72
RNF141,-0.69
RNF141,-0.49
RNF141,0.25
MEP1A,-0.6
MEP1A,0.45
MEP1A,-1.08
MEP1A,-0.81

Copied from above for reference:
gene symbol,TNF reporter robust z-score
EEF2KMT,-0.73
EEF2KMT,-0.7
EEF2KMT,-0.52
NDUFS3,0.55
